Laboratory results published in PMC10163288.
The list shows a part of the results.

B1: il10ra_site1_normal_mot_HHH_b2_02022_000000155_0001_19_35_H_._HHH_b2_06257_0001_0000300026_0000001_0 (protein)
chain: SSSSSDTEELLRRLEEEVEELIEEGDQQKAIELLYEISRLAEEKDDEEAREVALRLSRLLSSSSS
B2: il10ra_site1_normal_mot_HHH_b1_07527_000000076_0001_1_15_H_._HHH_b1_08385_0001_0000300038_0000001_0 (protein)
chain: SSSSNEEADEVYKLIREIMELLREGDHERAEELLERAKEIAEEAGSPLLLIILRLLERELKSSSS
B3: il10ra_site1_normal_mot_HHH_b1_05185_000000011_0001_22_39_H_._HHH_b1_06411_0001_0000300023_0000002_0 (protein)
chain: SSSSDVERYIKLAIRFAEALAEAGNPEAARRLIRIAIQIARREGNPELVRELEELLEQLEGSSSS
B4: il10ra_site1_normal_mot_HHH_b2_07006_000000108_0001_1_19_H_._HHH_b2_06449_0001_0000300027_0000001_0 (protein)
chain: SSSSTDEIYELLRELIEAIQDGDEERAEHLVEEIRRLIEEAGSPVMEHLLRFLEELLERRGSSSS
B5: il10ra_site1_sap_20_mot_HHH_b2_02337_000000026_0001_38_52_H_._HHH_b2_02238_af2_0001_0000100004_0000001_0_0001 (protein)
chain: SSSSSEHQELYELIRELIELVAEGDREEFEELYEEVEKLAEELNSWVARMILKYLREQVESSSSS
B6: il10ra_site1_normal_mot_HHH_b1_01827_000000263_0001_1_19_H_._HHH_b2_03023_0001_0000500031_0000001_0_af2pred_0001 (protein)
chain: SSSSTDENEEVIKLLREAAHIEDEEEARRVLEEAFEVAEEGGNELARLAVEFLLRILEEQSSSSS
B7: il10ra_site1_normal_mot_7f9b3cf633cfd27bca007b62ade1be3b_0001_1_000000138_0001_17_32_H_._HHH_b1_05277_0001_0000200014_0000001_1 (protein)
chain: SSSSSSSTERALRFLIFALERAETEEQRRAALRFLEHLAKYLNDEEAEEVVEEFKERHSSSSSSS
B8: il10ra_site1_normal_mot_HHH_b2_03220_af2_000000223_0001_23_40_H_._HHH_b1_00340_af2_0001_0000100002_0000001_0 (protein)
chain: SSSSDETTERAWELIREALELLANGDKEEAEEVLREAEELAEEGNSFAFERAIRLVLRDASSSSS
B9: il10ra_site1_normal_mot_HHH_b1_05357_000000034_0001_23_39_H_._HHH_b2_05979_0002_0000600053_0000001_0 (protein)
chain: SSSSSEFEELREEIERALEENDEELVKELLLELAAVAARLRDPELTHEVIQLYARVHEYFSSSSS
B10: il10ra_site1_normal_mot_HHH_b2_00033_000000036_0001_41_54_H_._HHH_b2_06760_af2_0001_0000200011_0000001_0 (protein)
chain: SSSSDEEKEELERLIEELRELLENGDPERAAKVAMRALQLAFRLRDPELFQELWEVFKRHFSSSS
B11: il10ra_site1_sap_18_mot_HHH_b2_06497_000000202_0001_1_20_H_._HHH_b1_07903_0001_0000400029_0000001_0_0001 (protein)
chain: SSSSDEEDEELLRLVLEAFRLALRGNEEEARRVLEEAEELAEKLNNEKVLKMVRDLLKALSSSSS
B12: il10ra_site1_normal_mot_HHH_b2_08144_af2_000000046_0001_38_52_H_._HHH_b1_00453_af2_0001_0000100003_0000001_0 (protein)
chain: SSSSSELVREAYEALRRLAELAHEGDEEEFQELYEEARRLAEEANNPLLAFQVEFLFRRFTSSSS
B13: il10ra_site1_normal_mot_HHH_b2_02053_af2_000000006_0001_3_19_H_._HHH_b1_07461_0001_0000100009_0000001_0_af2pred_0001 (protein)
chain: SSSSSASEEVRKLLREALELLDKGNPEEAEELVEEAVRIAEENNNPVLLFVAEFLLKDIRGSSSS
B14: il10ra_site1_normal_mot_9368472692dc9678e81f248f6367350b_0001_000000260_0001_20_35_H_._HHH_b1_06755_0001_0000100002_0000002_0 (protein)
chain: SSSSDEEEHRLLELSQHALRAALRGDEEEARRLLEEAIELAEELGNERALRVLEELLKAHSSSSS
B15: il10ra_site1_normal_mot_HHH_b1_05357_000000034_0001_23_39_H_._HHH_b2_02016_0001_0000400030_0000001_0_af2pred_0001 (protein)
chain: SSSSDTEEEVRELLERAEEAAKRGDREETAFLLLRAFSLAAEARNEELKREIEKVAQELSSSSSS
B16: il10ra_site1_sap_20_mot_HHH_b1_05056_000000217_0001_1_20_H_._HHH_b2_06181_0001_0000600016_0000002_0_0001_af2pred_0001 (protein)
chain: SSSSDEEEYEEKVEELLEEAKHIPDPRERAYVLTRAFALATQVNDPELEELVRRVAQELISSSSS
B17: il10ra_site1_normal_mot_HHH_b2_05323_000000159_0001_1_18_H_._HHH_b1_04617_af2_0001_0000100018_0000002_0 (protein)
chain: SSSSDNEEALRLSQRAFRAALRGNPEEARELLEEARELAEQAGNERLVRAIESLLKSLELGSSSS
B18: il10ra_site1_sap_26_mot_HHH_b2_04001_000000102_0001_19_36_H_._HHH_b2_00096_0001_0000100005_0000001_0_0001 (protein)
chain: SSSSDEEERIIEQALELAEERGDRETFLQLRVALELARLSNNPRVLESLAKYAEEVLEELNSSSS
B19: il10ra_site1_normal_mot_HHH_b2_00033_000000036_0001_41_54_H_._HHH_b1_08598_0001_0000300016_0000002_0 (protein)
chain: SSSSSSSDFQELALRALRLLIKRNDKELFQELWRLVKEIAEHGDPELREELEEFLEEISSSSSSS

The binders below were run against il10ra, Q13651 (assay: yeast display titration).

| Binder | apparent Kd |
| --- | --- |
| B1 | inactive: no binding seen |
| B2 | inactive: no binding seen |
| B3 | inactive: no binding seen |
| B4 | inactive: no binding seen |
| B5 | inactive: no binding seen |
| B6 | inactive: no binding seen |
| B7 | inactive: no binding seen |
| B8 | inactive: no binding seen |
| B9 | inactive: no binding seen |
| B10 | inactive: no binding seen |
| B11 | inactive: no binding seen |
| B12 | inactive: no binding seen |
| B13 | inactive: no binding seen |
| B14 | inactive: no binding seen |
| B15 | inactive: no binding seen |
| B16 | inactive: no binding seen |
| B17 | inactive: no binding seen |
| B18 | inactive: no binding seen |
| B19 | inactive: no binding seen |

Some values from the list.
Under apparent Kd, B17 is listed with inactive: no binding seen
Under apparent Kd, B6 is listed with inactive: no binding seen
